Measurements reported in PubChem BioAssay AID1508597 (Cure First, 2020)

Screen: 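Knock-downs altering ovarian cancer cell survival with or without PARP inhibitor rucaparib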 (primary screen)
Cells: human ovarian carcinoma lines grown from tumours: OCI-P5x (papillary serous) and OCI-C5x (clear cell)
Reagents: siRNA pool against human genes, 1.25 pmol siRNA per well
Time to read-out: 72 h or 96 h, depending on the cell culture
Conditions: rucaparib 20 µM (about IC30) or vehicle, present until read-out
Rucaparib or vehicle: Vehicle
Cell line: OCI-C5x (clear cell)
Read-out: 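Luminescent ATP-based viability assay read 72 or 96 h after transfection, depending on culture, given as normalised percent viability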
Direction: viability, normalised: higher = more viable cells remaining
Active means: 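a well counts as a hit if its normalised viability is under 80 percent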
Calls: active = viability under 80%; inactive = viability 80% or more
Shown is a random part of the about 2,100 reagents, under one of the conditions tested. 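Calls flag viability under 80% in either arm, not effects specific to rucaparib; the reference for percent is not stated.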 Reagents against one gene are numbered here. No sequences are given here. Not given: the 100% reference.

gene symbol,pool no.,technical replicate,"viability, normalised (%)",activity call
DCLK1 (doublecortin like kinase 1),1,1,56.7,active
DCLK1 (doublecortin like kinase 1),1,2,78.7,active
DCLK1 (doublecortin like kinase 1),1,3,57.5,active
CTNNB1 (catenin beta 1),1,1,52.3,active
CTNNB1 (catenin beta 1),1,2,43.6,active
CTNNB1 (catenin beta 1),1,3,43.6,active
TPP1 (tripeptidyl peptidase 1),1,1,49,active
TPP1 (tripeptidyl peptidase 1),1,2,57.8,active
TPP1 (tripeptidyl peptidase 1),1,3,50.8,active
UBE2V2 (ubiquitin conjugating enzyme E2 V2),1,1,50.7,active
UBE2V2 (ubiquitin conjugating enzyme E2 V2),1,2,56,active
UBE2V2 (ubiquitin conjugating enzyme E2 V2),1,3,52.6,active
PLK2 (polo like kinase 2),1,1,69.7,active
PLK2 (polo like kinase 2),1,2,62,active
PLK2 (polo like kinase 2),1,3,42.4,active
PBRM1 (polybromo 1),1,1,28.9,active
PBRM1 (polybromo 1),1,2,29,active
PBRM1 (polybromo 1),1,3,44.2,active
KDM1B (lysine demethylase 1B),1,1,63.3,active
KDM1B (lysine demethylase 1B),1,2,70.9,active
KDM1B (lysine demethylase 1B),1,3,71.4,active

The list goes on (3 carried over from the part before).
gene symbol,pool no.,technical replicate,"viability, normalised (%)",activity call
KDM1B (lysine demethylase 1B),1,1,63.3,active
KDM1B (lysine demethylase 1B),1,2,70.9,active
KDM1B (lysine demethylase 1B),1,3,71.4,active
FKBP1A (FKBP prolyl isomerase 1A),1,1,52.7,active
FKBP1A (FKBP prolyl isomerase 1A),1,2,66.2,active
FKBP1A (FKBP prolyl isomerase 1A),1,3,58.8,active
MED31 (mediator complex subunit 31),1,1,74.9,active
MED31 (mediator complex subunit 31),1,2,77.7,active
MED31 (mediator complex subunit 31),1,3,67.7,active
SMARCE1 (SWI/SNF related BAF chromatin remodeling complex subunit E1),1,1,39.9,active
SMARCE1 (SWI/SNF related BAF chromatin remodeling complex subunit E1),1,2,30.3,active
SMARCE1 (SWI/SNF related BAF chromatin remodeling complex subunit E1),1,3,27.3,active
SMAD4 (SMAD family member 4),1,1,26.8,active
SMAD4 (SMAD family member 4),1,2,20.5,active
SMAD4 (SMAD family member 4),1,3,20.4,active
L3MBTL1 (L3MBTL histone methyl-lysine binding protein 1),1,1,55.8,active
L3MBTL1 (L3MBTL histone methyl-lysine binding protein 1),1,2,64.5,active
L3MBTL1 (L3MBTL histone methyl-lysine binding protein 1),1,3,68.1,active
PDXK (pyridoxal kinase),1,1,54,active
PDXK (pyridoxal kinase),1,2,52,active
PDXK (pyridoxal kinase),1,3,72.8,active
TMPO (thymopoietin),1,1,52.4,active
TMPO (thymopoietin),1,2,58.6,active
TMPO (thymopoietin),1,3,57,active
KMT5A (lysine methyltransferase 5A),1,1,15.8,active
KMT5A (lysine methyltransferase 5A),1,2,19.5,active
KMT5A (lysine methyltransferase 5A),1,3,25.5,active
HFM1 (helicase for meiosis 1),1,1,78.9,active
HFM1 (helicase for meiosis 1),1,2,58.8,active
HFM1 (helicase for meiosis 1),1,3,76.6,active
CDIPT (CDP-diacylglycerol--inositol 3-phosphatidyltransferase),1,1,39.7,active
CDIPT (CDP-diacylglycerol--inositol 3-phosphatidyltransferase),1,2,43.8,active
CDIPT (CDP-diacylglycerol--inositol 3-phosphatidyltransferase),1,3,40.8,active
ROR1 (ROR family WNT receptor 1),1,1,62.5,active
ROR1 (ROR family WNT receptor 1),1,2,52.6,active
ROR1 (ROR family WNT receptor 1),1,3,54.2,active
RAD51D (RAD51 paralog D),1,1,61.3,active
RAD51D (RAD51 paralog D),1,2,60.4,active
RAD51D (RAD51 paralog D),1,3,56.1,active
RAD51D (RAD51 paralog D),2,1,60.9,active
RAD51D (RAD51 paralog D),2,2,46.4,active
RAD51D (RAD51 paralog D),2,3,56.8,active
